Measured values from publication doi:10.1101/569459 (bioRxiv, 2019).
No constants are given. Whether binding was seen depends on the method and setting. Binding seen in cells or lysates may run through a third protein. A yes stands for co-enrichment or nearness to the bait. Other partners may have been found.

By UniProt entry, the sequences of proteins in these tests, tags left out. Where a name states a change or a piece, a line headed by the entry shows the natural chain unless it says otherwise.
UniProt Q15058, whole entry, stated change not applied: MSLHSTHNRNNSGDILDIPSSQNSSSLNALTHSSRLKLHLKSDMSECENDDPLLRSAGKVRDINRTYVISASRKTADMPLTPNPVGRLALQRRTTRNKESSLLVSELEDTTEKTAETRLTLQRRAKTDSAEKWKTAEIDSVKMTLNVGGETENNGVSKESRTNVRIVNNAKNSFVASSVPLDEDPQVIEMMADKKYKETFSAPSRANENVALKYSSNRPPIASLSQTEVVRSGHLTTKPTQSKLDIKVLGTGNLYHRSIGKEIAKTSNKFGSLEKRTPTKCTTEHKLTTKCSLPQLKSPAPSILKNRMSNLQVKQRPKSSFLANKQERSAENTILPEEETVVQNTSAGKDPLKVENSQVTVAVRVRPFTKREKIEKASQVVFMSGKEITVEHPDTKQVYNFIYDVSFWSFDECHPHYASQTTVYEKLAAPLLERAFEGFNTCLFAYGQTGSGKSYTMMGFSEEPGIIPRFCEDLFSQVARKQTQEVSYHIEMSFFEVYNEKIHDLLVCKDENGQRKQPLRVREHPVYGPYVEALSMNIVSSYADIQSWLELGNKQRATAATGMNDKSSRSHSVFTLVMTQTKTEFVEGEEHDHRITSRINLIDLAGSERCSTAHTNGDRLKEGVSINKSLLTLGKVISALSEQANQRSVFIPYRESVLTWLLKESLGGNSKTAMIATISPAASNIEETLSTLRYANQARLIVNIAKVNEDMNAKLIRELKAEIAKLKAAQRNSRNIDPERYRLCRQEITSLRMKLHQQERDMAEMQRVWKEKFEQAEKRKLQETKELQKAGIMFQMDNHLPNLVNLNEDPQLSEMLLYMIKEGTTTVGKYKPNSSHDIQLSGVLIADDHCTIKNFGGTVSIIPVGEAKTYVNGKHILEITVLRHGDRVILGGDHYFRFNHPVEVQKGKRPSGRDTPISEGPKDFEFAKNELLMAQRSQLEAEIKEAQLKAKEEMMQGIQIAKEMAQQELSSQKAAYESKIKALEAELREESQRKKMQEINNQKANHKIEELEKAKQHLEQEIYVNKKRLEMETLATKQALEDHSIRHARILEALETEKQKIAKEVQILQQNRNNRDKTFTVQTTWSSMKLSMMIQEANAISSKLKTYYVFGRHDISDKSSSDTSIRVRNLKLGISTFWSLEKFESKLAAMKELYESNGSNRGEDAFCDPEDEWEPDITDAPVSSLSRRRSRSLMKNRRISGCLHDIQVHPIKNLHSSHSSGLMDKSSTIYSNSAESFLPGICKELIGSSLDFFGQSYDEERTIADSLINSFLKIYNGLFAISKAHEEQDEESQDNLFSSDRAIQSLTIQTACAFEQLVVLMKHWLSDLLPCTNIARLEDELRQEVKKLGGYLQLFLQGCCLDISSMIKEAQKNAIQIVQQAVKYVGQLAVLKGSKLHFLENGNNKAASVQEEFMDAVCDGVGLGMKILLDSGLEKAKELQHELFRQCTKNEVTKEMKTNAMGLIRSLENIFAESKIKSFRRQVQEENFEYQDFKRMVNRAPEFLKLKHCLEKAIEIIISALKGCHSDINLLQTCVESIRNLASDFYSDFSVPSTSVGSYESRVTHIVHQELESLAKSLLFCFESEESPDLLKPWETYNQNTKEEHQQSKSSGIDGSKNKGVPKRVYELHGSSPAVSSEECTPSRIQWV
UniProt O14578, whole entry, stated change not applied: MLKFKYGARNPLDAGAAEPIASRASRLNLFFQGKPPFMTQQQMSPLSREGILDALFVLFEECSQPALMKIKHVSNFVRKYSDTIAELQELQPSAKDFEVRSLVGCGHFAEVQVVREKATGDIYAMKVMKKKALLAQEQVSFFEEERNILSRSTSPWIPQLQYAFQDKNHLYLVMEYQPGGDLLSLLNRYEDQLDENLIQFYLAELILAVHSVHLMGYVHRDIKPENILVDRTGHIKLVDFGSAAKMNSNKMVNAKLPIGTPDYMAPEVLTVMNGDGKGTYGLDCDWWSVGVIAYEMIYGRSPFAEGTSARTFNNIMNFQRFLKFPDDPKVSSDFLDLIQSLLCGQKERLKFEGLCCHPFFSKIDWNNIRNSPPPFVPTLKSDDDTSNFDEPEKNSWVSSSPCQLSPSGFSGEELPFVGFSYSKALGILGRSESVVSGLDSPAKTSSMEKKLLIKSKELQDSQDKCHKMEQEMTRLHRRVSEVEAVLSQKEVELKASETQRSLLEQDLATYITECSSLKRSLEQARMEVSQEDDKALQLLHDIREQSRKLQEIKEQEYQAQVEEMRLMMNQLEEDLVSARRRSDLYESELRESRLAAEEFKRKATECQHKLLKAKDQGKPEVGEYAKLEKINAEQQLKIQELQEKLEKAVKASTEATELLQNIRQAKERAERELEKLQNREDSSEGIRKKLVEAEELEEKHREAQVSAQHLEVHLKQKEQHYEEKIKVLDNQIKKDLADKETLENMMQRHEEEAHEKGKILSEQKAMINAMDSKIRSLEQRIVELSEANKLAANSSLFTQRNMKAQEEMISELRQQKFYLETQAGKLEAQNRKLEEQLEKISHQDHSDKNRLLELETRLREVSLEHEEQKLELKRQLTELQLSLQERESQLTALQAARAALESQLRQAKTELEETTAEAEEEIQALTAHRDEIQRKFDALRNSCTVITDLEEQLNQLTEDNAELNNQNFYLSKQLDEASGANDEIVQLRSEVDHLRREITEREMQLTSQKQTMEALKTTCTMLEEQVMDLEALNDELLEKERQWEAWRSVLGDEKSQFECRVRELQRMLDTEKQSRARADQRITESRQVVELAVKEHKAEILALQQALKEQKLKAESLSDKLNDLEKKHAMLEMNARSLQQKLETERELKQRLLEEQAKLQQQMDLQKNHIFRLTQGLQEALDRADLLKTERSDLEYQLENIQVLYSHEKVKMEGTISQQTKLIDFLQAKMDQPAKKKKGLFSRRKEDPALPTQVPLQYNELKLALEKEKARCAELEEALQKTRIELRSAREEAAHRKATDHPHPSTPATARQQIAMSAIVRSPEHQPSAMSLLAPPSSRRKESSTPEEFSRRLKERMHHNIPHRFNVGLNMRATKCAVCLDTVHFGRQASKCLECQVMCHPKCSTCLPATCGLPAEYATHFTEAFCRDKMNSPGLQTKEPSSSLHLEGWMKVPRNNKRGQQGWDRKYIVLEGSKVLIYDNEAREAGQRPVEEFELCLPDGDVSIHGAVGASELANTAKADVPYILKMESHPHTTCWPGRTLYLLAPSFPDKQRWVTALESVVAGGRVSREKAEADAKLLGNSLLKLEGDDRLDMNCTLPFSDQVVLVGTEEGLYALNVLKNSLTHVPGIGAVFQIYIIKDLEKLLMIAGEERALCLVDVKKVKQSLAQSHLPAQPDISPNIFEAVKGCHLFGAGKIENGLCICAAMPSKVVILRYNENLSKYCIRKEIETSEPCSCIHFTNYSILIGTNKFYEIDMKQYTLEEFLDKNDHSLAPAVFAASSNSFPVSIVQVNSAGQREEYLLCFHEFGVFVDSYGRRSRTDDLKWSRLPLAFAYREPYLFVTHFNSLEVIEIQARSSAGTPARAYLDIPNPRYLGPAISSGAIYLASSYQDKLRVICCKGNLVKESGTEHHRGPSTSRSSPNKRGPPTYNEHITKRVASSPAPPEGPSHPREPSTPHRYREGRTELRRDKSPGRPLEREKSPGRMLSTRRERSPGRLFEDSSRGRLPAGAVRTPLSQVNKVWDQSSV

Experiments:
[1] = target: KIF14 (tagged bait of the AP-MS) (UniProt Q15058); experiment: affinity purification with mass spectrometry
[2] = target: Citron kinase tagged with GFP (CIT-K::AcGFP) (UniProt O14578); experiment: affinity purification with mass spectrometry

B1: microtubule depolymerizing kinesin KIF2C/MCAK (protein, UniProt Q99661 1-725)
chain: MAMDSSLQARLFPGLAIKIQRSNGLIHSANVRTVNLEKSCVSVEWAEGGATKGKEIDFDDVAAINPELLQLLPLHPKDNLPLQENVTIQKQKRRSVNSKIPAPKESLRSRSTRMSTVSELRITAQENDMEVELPAAANSRKQFSVPPAPTRPSCPAVAEIPLRMVSEEMEEQVHSIRGSSSANPVNSVRRKSCLVKEVEKMKNKREEKKAQNSEMRMKRAQEYDSSFPNWEFARMIKEFRATLECHPLTMTDPIEEHRICVCVRKRPLNKQELAKKEIDVISIPSKCLLLVHEPKLKVDLTKYLENQAFCFDFAFDETASNEVVYRFTARPLVQTIFEGGKATCFAYGQTGSGKTHTMGGDLSGKAQNASKGIYAMASRDVFLLKNQPCYRKLGLEVYVTFFEIYNGKLFDLLNKKAKLRVLEDGKQQVQVVGLQEHLVNSADDVIKMIDMGSACRTSGQTFANSNSSRSHACFQIILRAKGRMHGKFSLVDLAGNERGADTSSADRQTRMEGAEINKSLLALKECIRALGQNKAHTPFRESKLTQVLRDSFIGENSRTCMIATISPGISSCEYTLNTLRYADRVKELSPHSGPSGEQLIQMETEEMEACSNGALIPGNLSKEEEELSSQMSSFNEAMTQIRELEEKAMEELKEIIQQGPDWLELSEMTEQPDYDLETFVNKAESALAQQAKHFSALRDVIKALRLAMQLEEQASRQISSKKRPQ
B1 was tested, and the binding [1] was “binds” and the binding [2] was “binds”.
